Measurements published in PubChem BioAssay AID1347075 (National Center for Advancing Translational Sciences (NCATS), 2019).
The whole screen tested about 400,000 compounds, of which about 5,500 (1.4%) were called active. Inconclusive means that the source gave no clear call. Such entries were picked first, then a sample of the others. Calls follow the shape of the dose curve; as a rule, active = well fitted cell-killing curve with a large enough effect; inconclusive = small, poorly fitted or top-dose-only effect, or effect the other way; inactive = flat fitted curve, though single readings scatter. Potencies of inconclusive entries are doubtful fits and often do not repeat.
% is scaled to controls: 0 for no effect and ±100 for the full control effect; potency is read from the fitted curve at half-maximal effect.

Experiment: qHTS assay for MDR1-selective chemotherapeutics: Primary screen using the parental adenocarcinoma cell KB-3-1; also: nearly all actives have a fitted effect of over 60% in size
Settings: KB-3-1 viability, CellTiter-Glo ATP luminescence, 72 h; activity change, negative = cytotoxic: at 46.1 µM (top of the series)
Procedure, shortened: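 Cytotoxicity measured as CellTiter-Glo luminescence after 72 h at 37 C. Compound titrations were pinned onto drug-naive KB-3-1 parental adenocarcinoma cells grown in DMEM with 10% FBS, and normalized data fitted to concentration-response curves.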
For `O=C(Nc1ccc(-c2nc3ncccc3o2)cc1)c1ccc([N+](=O)[O-])o1`, the Potency was inconclusive: 3.66 µM [cytotoxic, full curve, poor fit].
In the case of `COCCNC(=O)C1(C)Cc2c(-c3cccc(NC(C)=O)c3)ccnc2O1` (centres undefined), the Potency is reported as inconclusive: 29.1 µM [cytotoxic, single point].
In the case of `CCN(CC)CCN(Cc1cc2ccc(C)cc2[nH]c1=O)C(=S)Nc1ccccc1C(=O)OC`, the Potency is reported as inconclusive: 25.9 µM [cytotoxic, single point].
In the case of `COc1ccc(-c2cnnc(N/N=C/c3c(C)nn(-c4ccccc4)c3Cl)n2)cc1`, the Potency is reported as inconclusive: 6.51 µM [cytotoxic, partial curve].
In the case of `CCCOc1ccc(/C=C/C(=O)Nc2ccc([N+](=O)[O-])cc2)cc1`, the Potency is reported as active: 7.31 µM.
For `COC(=O)[C@H]1C[C@H](OC(=O)NC2CC2)[C@@]2(O)CN(S(=O)(=O)c3ccc(C)cc3)CC2[C@H]1C(=O)OC` (some centres undefined), the Potency was inconclusive: 29.1 µM [cytotoxic, single point].
With `CN1/C(=C\C(=O)C[n+]2cccc(Br)c2)C(C)(C)c2ccccc21` the Potency was inconclusive: 14.6 µM [cytotoxic, partial curve, poor fit].
With `CN1Cc2c(N3CCOCC3)nc3sc(C(=O)c4ccc(Br)cc4)c(N)c3c2CC1(C)C` the Potency was inconclusive: 29.1 µM [cytotoxic, single point].
With `COc1ccccc1N=C(C)C1=C(O)CC(c2ccccc2)CC1=O` (centres undefined) the Potency was inconclusive: 0.461 µM [cytotoxic, full curve, poor fit].
For `O=C(CCc1nc2ccccc2c(=O)[nH]1)Nc1cc(Cl)ccc1N1CCCCC1`, the Potency was inconclusive: 23.1 µM [cytotoxic, single point].
For `CCN(CC)c1ccc(/C=N\NC(N)=O)cc1`, the Potency was inconclusive: 29.1 µM [cytotoxic, single point].
With `CCc1nnc(NC(=O)c2cccnc2SC)s1` the Potency was inconclusive: 23.1 µM [rising, single point].
In the case of `OCCCNc1ncnc2c1ncn2[C@H]1CN(Cc2ccc(-c3ccccc3)cc2)C[C@@H](CO)O1`, the Potency is reported as “inactive”.
For `CC(C)S(=O)(=O)c1csc(NC(=O)Nc2cccc([N+](=O)[O-])c2)c1Cl`, the Potency was active: 23.1 µM.
With `Fc1ccc(C2c3[nH]c4ccccc4c3CCN2Cc2cccn2-c2ncccn2)cc1` (centres undefined) the Potency was inconclusive: 23.1 µM [cytotoxic, partial curve].
For `COC(=O)C(=C/C(C)=C/c1cccnc1)C(=O)OC`, the Potency was inconclusive: 18.4 µM [cytotoxic, single point].
For `Cc1ccsc1/C=C(\CC(=O)O)c1nc2ccccc2o1`, the Potency was “inactive”.
For `Cc1ccc(OCCNC(=O)c2cccc(S(=O)(=O)NCc3ccccc3)c2)cc1`, the Potency was active: 4.61 µM.
For `CCOc1cc(C(=O)Nc2cc(C)ccn2)cc(OCC)c1OCC`, the Potency was inconclusive: 32.6 µM [cytotoxic, single point].
In the case of `COc1cccc(S(=O)(=O)NCc2ccc(C(=O)Nc3cccc(Cl)c3)cc2)c1`, the Potency is reported as inconclusive: 29.1 µM [cytotoxic, single point].
For `O=C(CNc1cccc(S(=O)(=O)N2CCCCC2)c1)Nc1cccc(F)c1`, the Potency was inconclusive: 16.4 µM [cytotoxic, single point].
In the case of `Cc1ccc(S(=O)(=O)Nc2csc(C)c2C(=O)O)cc1`, the activity change, negative = cytotoxic is reported as inconclusive: 6.44%.
For `CN(C(=O)Nc1ccc(Cl)cc1)n1cnc2ccccc2c1=O`, the Potency was inconclusive: 29.1 µM [rising, single point].
For `c1ccc(-c2nc3ccccc3s2)nc1`, the activity change, negative = cytotoxic was inconclusive: 2.41%.
With `COc1ccc2c(c1)c(CC(=O)Nc1ccccc1OC)c(C)n2C(=O)c1ccc(Cl)cc1` the Potency was inconclusive: 16.4 µM [cytotoxic, single point].
For `Cc1ccc([C@H]2C[C@@H](n3cc(-c4ccc(F)cc4)nn3)[C@H](O)CN2Cc2cccs2)cc1`, the Potency was inconclusive: 23.1 µM [cytotoxic, single point].
With `CC(C)c1ccc(NC(=O)C2CCCN(S(=O)(=O)c3cccnc3)C2)cc1` (centres undefined) the Potency was inconclusive: 6.51 µM [cytotoxic, partial curve].
For `COC(=O)c1ccccc1NC(=O)CN1C(=O)COc2ccccc21`, the Potency was “inactive”.
In the case of `COc1cccc2cc(-c3nc(Cl)c4c5c(sc4n3)CC(C)CC5)c(=O)oc12` (centres undefined), the Potency is reported as “inactive”.
With `C/C(=N/NC(=O)c1cccs1)c1c(C)[nH]n(-c2nc3ccccc3s2)c1=O` the Potency was inconclusive: 4.11 µM [cytotoxic, full curve, poor fit].
With `O=C1C=C(Nc2ccc(Cl)cc2Cl)CC(c2ccco2)C1` (centres undefined) the Potency was active: 6.51 µM.
For `CCOc1ccc(N2C(=O)Nc3ccccc3C2(O)C(=O)N2CCN(c3ccccn3)CC2)cc1` (centres undefined), the Potency was “inactive”.
In the case of `Cc1ccccc1Cn1c(NC2CCCC2)nc2c1c(=O)[nH]c(=O)n2C`, the Potency is reported as “inactive”.
In the case of `Cc1c(O)cnc2nn(-c3ccccc3)c(=N)n12`, the Potency is reported as “inactive”.
With `COc1ccc(S(=O)(=O)N2CCCCCC2)cc1C(=O)Nc1ccccn1` the Potency was inconclusive: 16.4 µM [rising, partial curve, poor fit].
In the case of `OC1CCCN(c2ncnc3c2nnn3Cc2c(F)cccc2Cl)C1` (centres undefined), the Potency is reported as inconclusive: 29.1 µM [cytotoxic, single point].
For `COc1ccc(Oc2ccc(NC(=O)c3ccccc3C)cc2)cc1`, the Potency was inconclusive: 29.1 µM [cytotoxic, single point].
For `O=C(NCc1ccco1)Nc1ccc2nsnc2c1`, the Potency was inconclusive: 18.4 µM [cytotoxic, single point].
In the case of `Cc1ccc(CCNC(=O)CN2CCN(Cc3ccccc3F)C2=O)cc1`, the Potency is reported as inconclusive: 3.26 µM [rising, partial curve, poor fit].
In the case of `Cn1nnnc1Sc1ncnc2scc(-c3ccc(-c4ccccc4)cc3)c12`, the Potency is reported as active: 14.6 µM.
In the case of `O=C(COc1ccc(Cl)cc1Br)Nc1cccc(S(=O)(=O)N2CCCC2)c1`, the Potency is reported as inconclusive: 29.1 µM [cytotoxic, single point].
For `CC(=O)Nc1ccc(NC(=O)c2cc([N+](=O)[O-])cc([N+](=O)[O-])c2)cc1`, the Potency was “inactive”.
For `COC(=O)c1ccccc1NC1=C/C(=N\S(=O)(=O)c2cccs2)c2ccccc2C1=O`, the Potency was inconclusive: 29.1 µM [cytotoxic, single point].
In the case of `OC(c1ccccc1)(c1nc(-c2cc3ccccc3o2)cs1)C(F)(F)F` (centres undefined), the Potency is reported as active: 23.1 µM.
For `C[C@@H]1CN([C@@H](C)CO)C(=O)Cc2cc(NC(=O)Nc3ccc(C(F)(F)F)cc3)ccc2O[C@@H]1CN(C)S(=O)(=O)c1ccc(Cl)cc1`, the Potency was inconclusive: 10.3 µM [cytotoxic, partial curve, poor fit].
With `CC(=O)c1cccc(OCc2cc(C(=O)N3CC4C[C@@H]5CC3C[C@H](C4)C5)no2)c1` the Potency was inconclusive: 32.6 µM [cytotoxic, single point].
In the case of `O=C1C=CC(=O)N1CCCCCCCCCCN1C(=O)C=CC1=O`, the Potency is reported as inconclusive: 14.6 µM [cytotoxic, partial curve].
For `CCCCc1c(-c2ccccc2Br)ncn1CCc1ccccc1OC`, the Potency was inconclusive: 18.4 µM [cytotoxic, single point].
For `CCCC(=O)NCCc1nc2ccccc2n1Cc1c(F)cccc1Cl`, the Potency was “inactive”.
For `CC(C)NC(=S)Nc1ccc(Oc2ccccc2)cc1`, the Potency was “inactive”.
For `CCOC(=O)CSc1nc2ccc(NC(=O)CSc3nnnn3Cc3ccccc3)cc2s1`, the Potency was inconclusive: 29.1 µM [cytotoxic, single point].
For `O=C(O)c1ccc(CN2C(=O)c3ccc(C(=O)O)cc3C2=O)cc1`, the Potency was “inactive”.
For `CN(C)c1cccc(-c2cc(N3CCC(C(N)=O)CC3)ncn2)c1`, the Potency was inconclusive: 29.1 µM [rising, partial curve, poor fit].
In the case of `O=C(c1cnc(-c2ccccc2)s1)c1ccc(Cl)cc1Cl`, the Potency is reported as “inactive”.
For `Cc1ccc(C)c(NCCCCC(=O)O)c1`, the Potency was “inactive”.
For `O=C(CS(=O)(=O)c1ccc(F)cc1)Nc1nnc(-c2cccs2)o1`, the Potency was “inactive”.
For `CCOc1ccccc1Nc1nnc(SCC(=O)NC2CCS(=O)(=O)C2)s1` (centres undefined), the Potency was “inactive”.
With `COc1ccc(S(=O)(=O)n2ccc(C)n2)cc1C` the Potency was “inactive”.
In the case of `CCOC(=O)c1cccc(NC(=O)c2c(NCc3ccccc3)[nH]c(=O)[nH]c2=O)c1`, the Potency is reported as inconclusive: 29.1 µM [cytotoxic, single point].
With `COc1cccc(CN(C)CC(=O)Nc2cc3oc4ccccc4c3cc2OC)c1` the Potency was inconclusive: 29.1 µM [cytotoxic, single point].
With `COc1cc(/C=C2\SC(=Nc3ccc(N4CCOCC4)cc3)N(C)C2=O)ccc1OC(C)C(=O)O` (centres undefined) the Potency was inconclusive: 23.1 µM [rising, partial curve, poor fit].
With `Cc1ccc(C(=O)NCC(c2cccs2)S(=O)(=O)c2cccs2)cc1C` (centres undefined) the Potency was inconclusive: 18.4 µM [cytotoxic, single point].
With `CCOC(=O)N1CCN(c2ncnc3c2[nH]c2ccc(F)cc23)CC1` the Potency was inconclusive: 23.1 µM [cytotoxic, single point].
With `CCN1/C(=C\C=C2\C(=O)N(c3ccccc3)C(=S)N2C)Sc2ccccc21` the Potency was “inactive”.
With `Clc1ccccc1CNc1ncnc2nc[nH]c12` the Potency was inconclusive: 9.2 µM [cytotoxic, partial curve, poor fit].
With `O=C(O)c1cccc(NC(=S)NC(=O)c2cccc(OCc3ccccc3)c2)c1` the Potency was inconclusive: 2.91 µM [rising, partial curve].
For `COc1ccc(OC)c(NC(=O)CSC2=Nc3ccccc3C3=NC(CCC(=O)NCc4ccco4)C(=O)N23)c1` (centres undefined), the Potency was “inactive”.
With `O=C(C1CCN(Cc2ccc(Cl)cc2)CC1)N1CCN(C(c2ccccc2)c2ccccc2)CC1` the Potency was active: 20.6 µM.
With `O=C(N/N=C/c1cc(Cl)ccc1O)C(=O)Nc1ccccc1OC(F)(F)C(F)F` the Potency was inconclusive: 3.66 µM [cytotoxic, full curve, poor fit].
